Results are given in words; binding and its absence hold for the method and conditions named.
Target: MSMEG_3494_(33-153) (M. smegmatis) (UniProt A0QY10)
Assay: SEC; Superdex 75 gel filtration after Ni affinity purification and removal of the tag by enterokinase; single peak, estimated 15 kDa; both purified

B1: MSMEG_3494_(33-153) (domain or fragment, UniProt A0QY10 33-153)
chain: DATDDYPIPNRIMRTPCTAEQIMAAARDVEPVYYERYMTDYKNKPPHVQQAARDRIHWFFSMDYAGRRQYSENTATDAFFEQLAWMWPNWAKLFFNNKGVAANTTDVCEQYPPDDMSVWNW
- binding: no binding
